Publication PMC4269414, “Stubborn Contaminants: Influence of Detergents on the Purity of the Multidrug ABC Transporter BmrA” (PLoS ONE, 2014)
These are yes or no findings as the source states them, for the method shown. In cells and extracts the contact can be indirect. These calls come from enrichment with a bait or labelling near it, and not all partners need be listed. No binding means not detected with the bait. Where a sequence is shown, tags or fusion partners need not be part of it.

Sequences of proteins named here, by UniProt entry; tags and fusion partners are left off. Residues count along the entry.
UniProt P02931, residues 23-362: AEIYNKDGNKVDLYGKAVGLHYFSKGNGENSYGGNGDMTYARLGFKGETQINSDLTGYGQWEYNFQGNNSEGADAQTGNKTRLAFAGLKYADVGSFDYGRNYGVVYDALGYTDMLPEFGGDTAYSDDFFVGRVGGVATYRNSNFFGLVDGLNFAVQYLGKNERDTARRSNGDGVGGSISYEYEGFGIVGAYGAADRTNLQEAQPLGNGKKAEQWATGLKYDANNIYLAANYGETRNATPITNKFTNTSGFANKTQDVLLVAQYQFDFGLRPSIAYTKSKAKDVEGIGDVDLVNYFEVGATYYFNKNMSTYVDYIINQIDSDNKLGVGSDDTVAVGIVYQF

Tests used:
[1] = target: T1, BmrA (Bacillus multidrug resistance ATP), 6-histidine N-terminal tag (Bacillus subtilis) (UniProt O06967); experiment: affinity purification with mass spectrometry; His6-BmrA solubilised from E. coli membranes with 1% FC12, Q-Sepharose and Ni2+ chelating column; overloaded SDS-PAGE bands identified by mass spectrometry
T1 sequence: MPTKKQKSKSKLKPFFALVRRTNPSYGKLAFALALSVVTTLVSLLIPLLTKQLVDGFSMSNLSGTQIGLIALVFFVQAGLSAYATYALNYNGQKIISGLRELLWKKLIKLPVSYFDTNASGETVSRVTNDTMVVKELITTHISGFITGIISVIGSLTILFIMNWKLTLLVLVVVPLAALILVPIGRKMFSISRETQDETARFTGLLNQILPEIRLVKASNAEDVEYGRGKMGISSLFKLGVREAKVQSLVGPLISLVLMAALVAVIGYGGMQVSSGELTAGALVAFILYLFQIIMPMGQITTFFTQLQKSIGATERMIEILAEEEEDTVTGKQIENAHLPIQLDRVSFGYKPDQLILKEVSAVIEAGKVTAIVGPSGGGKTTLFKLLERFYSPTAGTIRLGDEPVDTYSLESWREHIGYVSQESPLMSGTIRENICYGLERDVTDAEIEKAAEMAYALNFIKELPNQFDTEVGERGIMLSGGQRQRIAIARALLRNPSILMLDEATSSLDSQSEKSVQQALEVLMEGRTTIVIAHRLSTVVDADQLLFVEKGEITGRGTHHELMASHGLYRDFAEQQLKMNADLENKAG

[2] = target: T1, BmrA (Bacillus multidrug resistance ATP), 6-histidine N-terminal tag (Bacillus subtilis); experiment: as above; remark: listed apart in the source
[3] = target: T1, BmrA (Bacillus multidrug resistance ATP), 6-histidine N-terminal tag (Bacillus subtilis); experiment: affinity purification with mass spectrometry
[4] = target: T1, BmrA (Bacillus multidrug resistance ATP), 6-histidine N-terminal tag (Bacillus subtilis); experiment: affinity purification with mass spectrometry; His6-BmrA solubilised from E. coli membranes with 1% LDAO, Ni2+-NTA resin and SEC, 4°C; overloaded SDS-PAGE bands identified by mass spectrometry

## Outer membrane protein F (OmpF) (from UniProt P02931 23-362)
[1]
  binding: no binding

B1: Ferrienterobactin receptor (fepA) (protein, UniProt P05825 23-746)
chain: QEPTDTPVSHDDTIVVTAAEQNLQAPGVSTITADEIRKNPVARDVSKIIRTMPGVNLTGNSTSGQRGNNRQIDIRGMGPENTLILIDGKPVSSRNSVRQGWRGERDTRGDTSWVPPEMIERIEVLRGPAAARYGNGAAGGVVNIITKKGSGEWHGSWDAYFNAPEHKEEGATKRTNFSLTGPLGDEFSFRLYGNLDKTQADAWDINQGHQSARAGTYATTLPAGREGVINKDINGVVRWDFAPLQSLELEAGYSRQGNLYAGDTQNTNSDSYTRSKYGDETNRLYRQNYALTWNGGWDNGVTTSNWVQYEHTRNSRIPEGLAGGTEGKFNEKATQDFVDIDLDDVMLHSEVNLPIDFLVNQTLTLGTEWNQQRMKDLSSNTQALTGTNTGGAIDGVSTTDRSPYSKAEIFSLFAENNMELTDSTIVTPGLRFDHHSIVGNNWSPALNISQGLGDDFTLKMGIARAYKAPSLYQTNPNYILYSKGQGCYASAGGCYLQGNDDLKAETSINKEIGLEFKRDGWLAGVTWFRNDYRNKIEAGYVAVGQNAVGTDLYQWDNVPKAVVEGLEGSLNVPVSETVMWTNNITYMLKSENKTTGDRLSIIPEYTLNSTLSWQAREDLSMQTTFTWYGKQQPKKYNYKGQPAVGPETKEISPYSIVGLSATWDVTKNVSLTGGVDNLFDKRLWRAGNAQTTGDLAGANYIAGAGAYTYNEPGRTWYMSVNTHF
[2]
  binding: no binding

B2: Cytochrome ubiquinol oxidase sub. 1 (protein, UniProt P0ABJ0 1-663)
chain: MFGKLSLDAVPFHEPIVMVTIAGIILGGLALVGLITYFGKWTYLWKEWLTSVDHKRLGIMYIIVAIVMLLRGFADAIMMRSQQALASAGEAGFLPPHHYDQIFTAHGVIMIFFVAMPFVIGLMNLVVPLQIGARDVAFPFLNNLSFWFTVVGVILVNVSLGVGEFAQTGWLAYPPLSGIEYSPGVGVDYWIWSLQLSGIGTTLTGINFFVTILKMRAPGMTMFKMPVFTWASLCANVLIIASFPILTVTVALLTLDRYLGTHFFTNDMGGNMMMYINLIWAWGHPEVYILILPVFGVFSEIAATFSRKRLFGYTSLVWATVCITVLSFIVWLHHFFTMGAGANVNAFFGITTMIIAIPTGVKIFNWLFTMYQGRIVFHSAMLWTIGFIVTFSVGGMTGVLLAVPGADFVLHNSLFLIAHFHNVIIGGVVFGCFAGMTYWWPKAFGFKLNETWGKRAFWFWIIGFFVAFMPLYALGFMGMTRRLSQQIDPQFHTMLMIAASGAVLIALGILCLVIQMYVSIRDRDQNRDLTGDPWGGRTLEWATSSPPPFYNFAVVPHVHERDAFWEMKEKGEAYKKPDHYEEIHMPKNSGAGIVIAAFSTIFGFAMIWHIWWLAIVGFAGMIITWIVKSFDEDVDYYVPVAEIEKLENQHFDEITKAGLKNGN
[3]
  binding: no binding

B3: Cytochrome ubiquinol oxidase sub. 2 (protein, UniProt P0ABJ2 25-315)
chain: CNSALLDPKGQIGLEQRSLILTAFGLMLIVVIPAILMAVGFAWKYRASNKDAKYSPNWSHSNKVEAVVWTVPILIIIFLAVLTWKTTHALEPSKPLAHDEKPITIEVVSMDWKWFFIYPEQGIATVNEIAFPANTPVYFKVTSNSVMNSFFIPRLGSQIYAMAGMQTRLHLIANEPGTYDGISASYSGPGFSGMKFKAIATPDRAAFDQWVAKAKQSPNTMSDMAAFEKLAAPSEYNQVEYFSNVKPDLFADVINKFMAHGKSMDMTQPEGEHSAHEGMEGMDMSHAESAH
[4]
  binding: no binding
